Laboratory results: the supplement of paper PMC4635364
Counter-ions that a name gives are not always drawn. This is one part of the list. Single values are uncertain here, since repeats match poorly.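 Human fetal ventral-midbrain neural progenitor line ReNCell VM, differentiated without mitogens. Images stained for doublecortin (early neurons) or tyrosine hydroxylase (dopaminergic neurons) were scored by blinded raters against untreated wells (0 = no change). Repeats and both raters were averaged, and compounds averaging 2 or higher were picked as hits for retesting.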 *1 amine or outer side, *2 acyl side, *3 side chain or, on linkers, in order; H or OH if unused. Where a SMILES comes first, the peptide text is derived from it. [ ]: non-standard residue; d: D form. The star is where a group is joined. ξ: configuration not given here. X4 = O=C([C@H](N[*:1])C1CCC(O)CC1)[*:2]; X6 = O=C(C(N[*:1])C1CCC(O)C(Cl)C1)[*:2]; X5 = O=C(C(N[*:1])C1CCC(O)CC1)[*:2]; aThr = C[C@H](O)[C@H](N)C(=O)O; dOrn = NCCC[C@@H](N)C(=O)O; X3 = CCC/C=C\C=C/C(=O)*; ξN = NC(=O)CC(N)C(=O)O

How the values were obtained:
[1] = tested on: ReNCell VM; experiment: neuronal differentiation score (DCX+ cell fraction vs untreated, manual image score) (score (-3 to 3)); higher = more neuronal differentiation; conditions: 2 uM, 2 weeks
[2] = tested on: ReNCell VM; experiment: dopaminergic neuron differentiation score (TH+ cell fraction vs untreated, manual image score) (score (0 to 3)); higher = more TH+ dopaminergic neuron differentiation; conditions: 2 uM, 4 weeks, BDNF 10 ng/ml + GDNF 10 ng/ml

## COc1cc(OC)c2c(=O)c(-c3ccc4c(c3)OCO4)coc2c1
[1]; library: Spectrum
  neuronal differentiation score: inactive: 0
[2]; library: Spectrum
  dopaminergic neuron differentiation score: inactive: 0

## COc1c(C)c2c(c(O)c1C/C=C(\C)CCC(=O)OCCN1CCOCC1)C(=O)OC2
[1]; library: Spectrum
  neuronal differentiation score: inactive: 0
[2]; library: Spectrum
  dopaminergic neuron differentiation score: inactive: 0

## CC(C)c1c(O)c(-c2cc3c(c(C(C)C)c2O)CCC2C(C)(C)CCC[C@]32C)cc2c1CCC1C(C)(C)CCC[C@]21C (some centres undefined)
[1]; library: Spectrum
  neuronal differentiation score: inactive: 0
[2]; library: Spectrum
  dopaminergic neuron differentiation score: inactive: 0

## CCC/C=C\C=C/C(=O)N[C@@H](CC(N)=O)C(=O)NC(CC(N)=O)C(=O)N[C@@H](C(=O)N[C@H](CCCN)C(=O)N[C@@H](C(=O)N[C@@H](C(=O)N[C@@H](C(=O)N[C@H](C(=O)N[C@@H](Cc1ccccc1)C(=O)N[C@H](CCCN)C(=O)NC(C(=O)N[C@H](C(=O)NC(C(=O)NCC(=O)N[C@@H](CC(C)C)C(=O)N[C@H](C)C(=O)NC(C(=O)O)C1CCC(O)C(Cl)C1)C1CCC(O)CC1)[C@H](C)O)C1CCC(O)CC1)[C@H](C)O)C1CCC(O)CC1)C1CCC(O)CC1)[C@H](C)O)C1CCC(O)CC1 (some centres undefined) [RAMOPLANIN [A2 shown; 2mM]] (X3-N[ξN][X4][dOrn][dT][X4][X4][aThr]F[dOrn][X5][aThr][X5]GL[dA][X6]-OH)
[1]; library: Spectrum
  neuronal differentiation score: inactive: 0
[2]; library: Spectrum
  dopaminergic neuron differentiation score: inactive: 0

## C#C[C@]1(OC(C)=O)CC[C@H]2[C@@H]3CCC4=CC(=NO)CC[C@@H]4[C@H]3CC[C@@]21CC (mixture of isomers) [Norgestimate]
[1]; library: Prestwick
  neuronal differentiation score: inactive: 0
[2]; library: Prestwick
  dopaminergic neuron differentiation score: inactive: 0

## Cc1cc(C(C)(C)C)cc(C)c1CC1=NCCN1
[1]; library: Spectrum
  neuronal differentiation score: inactive: 0
[2]; library: Spectrum
  dopaminergic neuron differentiation score: inactive: 0

## COc1c(-c2coc3cc4c(cc3c2=O)CC(O)C(C)(C)O4)ccc2c1C=CC(C)(C)O2 (centres undefined)
[1]; library: Spectrum
  neuronal differentiation score: inactive: -1
[2]; library: Spectrum
  dopaminergic neuron differentiation score: active: 3

## NC(C(=O)O)c1ccc(C(=O)O)c(C(=O)O)c1 (racemic)
[1]; library: Tocriscreen
  neuronal differentiation score: inactive: 1
[2]; library: Tocriscreen
  dopaminergic neuron differentiation score: inactive: 0

## CC[C@H]1OC(=O)[C@H](C)[C@@H](O[C@H]2C[C@@](C)(OC)[C@@H](O)[C@H](C)O2)[C@H](C)[C@@H](O[C@@H]2O[C@H](C)C[C@H](N(C)C)[C@H]2O)[C@](C)(O)C[C@@H](C)CN(C)[C@H](C)[C@@H](O)[C@]1(C)O [Azithromycin]
[1]; library: Prestwick
  neuronal differentiation score: inactive: 0
[2]; library: Prestwick
  dopaminergic neuron differentiation score: inactive: 0

## Cc1cccc(C(=O)O)c1O
[1]; library: Spectrum
  neuronal differentiation score: inactive: 0
[2]; library: Spectrum
  dopaminergic neuron differentiation score: inactive: 0

## CCc1cccc(CC)c1NC(=O)CN(CC(=O)O)CC(=O)O [Etifenin]
[1]; library: Prestwick
  neuronal differentiation score: inactive: 0
[2]; library: Prestwick
  dopaminergic neuron differentiation score: inactive: 0

## COC(=O)C[C@](O)(CCCC(C)(C)O)C(=O)O[C@@H]1C(OC)=C[C@]23CCCN2CCc2cc4c(cc2[C@H]13)OCO4 [Homoharringtonine]
[1]; library: Tocriscreen
  neuronal differentiation score: inactive: 0
[2]; library: Tocriscreen
  dopaminergic neuron differentiation score: inactive: 0

## CC(C)(C)C(=O)OCOC(=O)[C@@H]1N2C(=O)[C@@H](NC(=O)[C@H](N)c3ccccc3)[C@H]2SC1(C)C [Pivampicillin]
[1]; library: Prestwick
  neuronal differentiation score: inactive: 0
[2]; library: Prestwick
  dopaminergic neuron differentiation score: inactive: 0

## CCOc1ccc(Cc2nccc3cc(OCC)c(OCC)cc23)cc1OCC [Ethaverine hydrochloride]
[1]; library: Prestwick
  neuronal differentiation score: inactive: 0
[2]; library: Prestwick
  dopaminergic neuron differentiation score: inactive: 1

## C/N=C(/NC#N)NCCSCc1csc(NC(=N)N)n1 [Tiotidine]
[1]; library: Tocriscreen
  neuronal differentiation score: inactive: 0
[2]; library: Tocriscreen
  dopaminergic neuron differentiation score: inactive: 0

## NCC(O)CC(=O)O (centres undefined)
[1]; library: Spectrum
  neuronal differentiation score: inactive: 0
[2]; library: Spectrum
  dopaminergic neuron differentiation score: inactive: 0

## NC(=O)c1cnccn1 [Pyrazinamide]
[1]; library: Prestwick
  neuronal differentiation score: inactive: 0
[2]; library: Prestwick
  dopaminergic neuron differentiation score: inactive: 0

## Cc1nccn1CC1CCc2c(c3ccccc3n2C)C1=O (centres undefined) [Ondansetron Hydrochloride]
[1]; library: Prestwick
  neuronal differentiation score: inactive: 0
[2]; library: Prestwick
  dopaminergic neuron differentiation score: inactive: 0

## CCCOc1cc(N)ccc1C(=O)OCCN(CC)CC [Propoxycaine hydrochloride]
[1]; library: Prestwick
  neuronal differentiation score: inactive: 0
[2]; library: Prestwick
  dopaminergic neuron differentiation score: inactive: 1

## COCCc1ccc(OCC(O)CNC(C)C)cc1 (centres undefined)
[1]; library: Spectrum
  neuronal differentiation score: inactive: 0
[2]; library: Spectrum
  dopaminergic neuron differentiation score: inactive: 0

## COc1cc(-c2coc3cc(OC)c(OC)c(OC)c3c2=O)cc(OC)c1OC
[1]; library: Spectrum
  neuronal differentiation score: inactive: 0
[2]; library: Spectrum
  dopaminergic neuron differentiation score: inactive: 0

## FC(F)(F)c1ccccc1-n1ccnc1 [1-[2-(Trifluoromethyl)phenyl]imidazole]
[1]; library: LOPAC
  neuronal differentiation score: inactive: 0
[2]; library: LOPAC
  dopaminergic neuron differentiation score: inactive: 0

## NS(=O)(=O)c1cccc2c1c([N+](=O)[O-])cc1nc(O)c(O)nc12
[1]; library: Tocriscreen
  neuronal differentiation score: inactive: 0
[2]; library: Tocriscreen
  dopaminergic neuron differentiation score: inactive: 0

## NC(=O)c1cccc(N)c1 [3-Aminobenzamide]
[1]; library: Tocriscreen
  neuronal differentiation score: inactive: 0
[2]; library: Tocriscreen
  dopaminergic neuron differentiation score: inactive: 0

## O=C(O)c1cn(C2CC2)c2cc(N3CCNCC3)c(F)cc2c1=O [Ciprofloxacin hydrochloride monohydrate]
[1]; library: Prestwick
  neuronal differentiation score: inactive: 0
[2]; library: Prestwick
  dopaminergic neuron differentiation score: inactive: 0

## COC(=O)Nc1nc2cc(Sc3ccccc3)ccc2[nH]1
[1]; library: Spectrum
  neuronal differentiation score: inactive: 0
[2]; library: Spectrum
  dopaminergic neuron differentiation score: inactive: 0

## CC(=O)O[C@@H]1C[C@@]23C[C@@]24CC[C@H](O[C@@H]2OC[C@@H](O)[C@H](O)[C@H]2O)C(C)(C)[C@@H]4CC[C@H]3[C@]2(C)C[C@@H]3O[C@]4(C[C@@H](C)[C@@H]3[C@@]12C)O[C@H](O)[C@@]1(C)O[C@@H]41
[1]; library: Spectrum
  neuronal differentiation score: inactive: 0
[2]; library: Spectrum
  dopaminergic neuron differentiation score: inactive: 1

## CN(CC[C@@H](Oc1ccc(C(F)(F)F)cc1)c1ccccc1)CC(=O)[O-].[Li+]
[1]; library: LOPAC
  neuronal differentiation score: inactive: 1
[2]; library: LOPAC
  dopaminergic neuron differentiation score: inactive: 1

## COc1cc2c(cc1OC)C1CCC3=C(C(C)OC3=O)N1CC2 (centres undefined)
[1]; library: Natural
  neuronal differentiation score: inactive: 0
[2]; library: Natural
  dopaminergic neuron differentiation score: inactive: 0

## CC(=O)N1CCN(C)CC1 [1-Acetyl-4-methylpiperazine hydrochloride]
[1]; library: Tocriscreen
  neuronal differentiation score: inactive: 0
[2]; library: Tocriscreen
  dopaminergic neuron differentiation score: inactive: 0

## CO[C@H]1C[C@H](O[C@@H]2/C(C)=C/C[C@@H]3C[C@@H](C[C@]4(CC[C@H](C)[C@@H](C5CCCCC5)O4)O3)OC(=O)[C@@H]3C=C(C)/C(=N/O)[C@H]4OC/C(=C\C=C\[C@@H]2C)[C@]43O)O[C@@H](C)[C@@H]1O
[1]; library: Spectrum
  neuronal differentiation score: inactive: 0
[2]; library: Spectrum
  dopaminergic neuron differentiation score: inactive: 0

## Cc1ncc(C[n+]2csc(CCO)c2C)c(N)n1
[1]; library: Spectrum
  neuronal differentiation score: active: 3
[2]; library: Spectrum
  dopaminergic neuron differentiation score: inactive: 0

## CC(NCCC(c1ccccc1)c1ccccc1)c1ccccc1 (centres undefined) [Fendiline hydrochloride]
[1]; library: Prestwick
  neuronal differentiation score: inactive: 0
[2]; library: Prestwick
  dopaminergic neuron differentiation score: inactive: 0

## O=C(O)CCC(=O)N1CCC[C@H]1C(=O)O [N-Succinyl-L-proline]
[1]; library: LOPAC
  neuronal differentiation score: inactive: 0
[2]; library: LOPAC
  dopaminergic neuron differentiation score: inactive: 0

## O=C(O)c1cc(=O)c2cccc(O)c2[nH]1
[1]; library: Spectrum
  neuronal differentiation score: inactive: 0
[2]; library: Spectrum
  dopaminergic neuron differentiation score: inactive: 0

## Clc1ccc(CCCOCCCN2CCCCC2)cc1
[1]; library: Tocriscreen
  neuronal differentiation score: inactive: 0
[2]; library: Tocriscreen
  dopaminergic neuron differentiation score: inactive: 0

## O=C(O)CCCCCCCC(=O)O [Azelaic acid]
[1]; library: LOPAC
  neuronal differentiation score: inactive: 0
[2]; library: LOPAC
  dopaminergic neuron differentiation score: inactive: 0

## O=C1NC(=O)c2c1c(-c1ccccc1)cc1[nH]c3ccc(O)cc3c21
[1]; library: Tocriscreen
  neuronal differentiation score: inactive: 0
[2]; library: Tocriscreen
  dopaminergic neuron differentiation score: inactive: 0

## NCCCC[C@H](N[C@@H](CCc1ccccc1)C(=O)O)C(=O)N1CCC[C@H]1C(=O)O
[1]; library: Spectrum
  neuronal differentiation score: inactive: 0
[2]; library: Spectrum
  dopaminergic neuron differentiation score: inactive: 0

## CCC(NC(C)C)C(O)c1ccc(O)c(O)c1 (centres undefined) [Isoetharine mesylate salt]
[1]; library: Prestwick
  neuronal differentiation score: inactive: 0
[2]; library: Prestwick
  dopaminergic neuron differentiation score: inactive: 0

## CC(C)=CCCC1(C)C=Cc2c(O)c3c(c(CC=C(C)C)c2O1)OC12C(=CCCC1C(C)(C)O[C@@]2(C/C=C(\C)C(=O)O)C(=O)O)C3=O (some centres undefined)
[1]; library: Spectrum
  neuronal differentiation score: inactive: 0
[2]; library: Spectrum
  dopaminergic neuron differentiation score: inactive: 0

## CC[N+](CC)(CC)CC(=O)Nc1c(C)cccc1C [QX 314 chloride]
[1]; library: Tocriscreen
  neuronal differentiation score: inactive: 0
[2]; library: Tocriscreen
  dopaminergic neuron differentiation score: inactive: 0

## Cn1cc(C2=C(c3cn(CCCSC(=N)N)c4ccccc34)C(=O)NC2=O)c2ccccc21 [Ro 31-8220 mesylate]
[1]; library: Tocriscreen
  neuronal differentiation score: inactive: 0
[2]; library: Tocriscreen
  dopaminergic neuron differentiation score: inactive: 0

## Cc1c(NC(C)C)c(=O)n(-c2ccccc2)n1C
[1]; library: Spectrum
  neuronal differentiation score: inactive: 0
[2]; library: Spectrum
  dopaminergic neuron differentiation score: inactive: 0

## OC[C@H]1NC[C@@H](O)[C@@H]1O [1,4-Dideoxy-1,4-imino-D-arabinitol]
[1]; library: LOPAC
  neuronal differentiation score: inactive: 0
[2]; library: LOPAC
  dopaminergic neuron differentiation score: inactive: 0

## COc1cc(/C=C/C(=O)N2CCCCCCC2)cc(OC)c1OC
[1]; library: Spectrum
  neuronal differentiation score: inactive: 0
[2]; library: Spectrum
  dopaminergic neuron differentiation score: inactive: 0

## Cn1c(-c2ccc3c(c2)OCO3)cc(=O)c2ccccc21 [Graveoline]
[1]; library: Phytochemical
  neuronal differentiation score: inactive: 0
[2]; library: Phytochemical
  dopaminergic neuron differentiation score: inactive: 0

## Nc1ncnc2c1ncn2[C@@H]1O[C@H](CO)[C@@H](O)[C@H]1O
[1]; library: Spectrum
  neuronal differentiation score: inactive: 0
[2]; library: Spectrum
  dopaminergic neuron differentiation score: inactive: 0

## CCS(=O)(=O)N(C)[C@H]1c2cc(C#N)ccc2OC(C)(C)[C@@H]1O [(-)-[3R,4S]-Chromanol 293B]
[1]; library: Tocriscreen
  neuronal differentiation score: inactive: 0
[2]; library: Tocriscreen
  dopaminergic neuron differentiation score: inactive: 0

## COc1ccc(C(=O)c2ccccc2O)c(O)c1
[1]; library: Spectrum
  neuronal differentiation score: inactive: 0
[2]; library: Spectrum
  dopaminergic neuron differentiation score: inactive: 0

## CCCCN1CCC(n2c(=O)[nH]c3ccccc32)CC1 [NS 521 oxalate]
[1]; library: LOPAC
  neuronal differentiation score: inactive: 0
[2]; library: LOPAC
  dopaminergic neuron differentiation score: inactive: 0

## CCNC(=O)N1CCN(CCCC(c2ccc(F)cc2)c2ccc(F)cc2)CC1 [Amperozide hydrochloride]
[1]; library: LOPAC
  neuronal differentiation score: inactive: 1
[2]; library: LOPAC
  dopaminergic neuron differentiation score: inactive: 0
